Assay [1] has as its target T1, human EGFR wild type (human, UniProt P00533 25-1210).
T1 construct: whole, on cells; also called EGFR on NR6W cells; EGFR in NR6W lysate
In words: plate pulldown from NR6W lysate with VHH on nickel-chelate plate, anti-EGFR (H11) Western blot. On the technique in general: Immunoblotting shows a protein as a band on a membrane.

Assay [2] has as its target T1, human EGFR wild type. In words: pull-down from NR6W lysate by His-tagged VHH on a nickel-chelate plate, Western blot with anti-EGFR mAb H11.
Assay [3] has as its target EGFR ECD (wild type) (UniProt P00533). Description: SPR on immobilized EGFR ECD.
Assay [4] shares this target. Description: ELISA on immobilized EGFR ECD. On the technique in general: ELISA stands for enzyme-linked immunosorbent assay.

From patent US20110200525A1 (published 2011) come the findings set out here.

Results are given in words; binding and its absence hold for the method and conditions named. For part of these data: Binding seen in cells or lysates may run through a third protein. Some entries that bind do so weakly or less than the wild type.

B1: VHH110 (VHH, not shown: small tags and cut ends)
VHH: EVKLQESGGGLVQSGGSLRLSCIASGSTVSDNTMGWYRQAPGKQRELVAVISSVGVTNVAQSVKGRFTISRDNAKNTVTVYLQMSSLKPEDTAVYYCNALGTGRGNWGQGTQVTVSS
As for B1, the binding result in assay [1] and in assay [2] was “binds” throughout.

B2: VHH104 (VHH, not shown: small tags and cut ends)
VHH: EVQLQQSGGGLVQSGGSLRLSCIASGSTVSDNTMGWYRQAPGKQRELVAVISSVGVTNVAQSVKGRFTISRDNAKNTVTVYLQMSSLKPEDTAVYYCNALGTGRGNWGQGTQVTVSS
As to B2, the binding result in assay [1] and in assay [2] was “binds” in each case.

B3: VHH139 (VHH, not shown: small tags and cut ends)
VHH: EVKLQQSGGGLVQPGKSLRLSCEASARAAGVGWFRQAPGLEREYVGSFLWNTGRTHYPESLKDRFTISKDNAKNTVYLQINSLKPEDTAIYYCAAVQLPIRTSLTEPATYTFWGQGTQVTVAS
Consider B3, for which the binding result in assay [1] and in assay [2] was “binds” each time.

B4: VHH101 (VHH, not shown: small tags and cut ends)
VHH: EVKLQESGGGLVQPGKSLRLSCEASARAAGVGWFRQAPGLEREYVGSFLWNTGRTHYPESLKDRFTISKDNAKNTVYLQINSLKPEDTAIYYCAAVQLPIRTSLTEPATYTFWGQGTQVTVAS
As for B4, the binding result in assay [1] and in assay [2] was “binds” throughout.

B5: VHH102 (VHH, not shown: small tags and cut ends)
VHH: EVKLQESGGGLVQSGGSLRLSCIASGSTVSGNTMGWYRQAPGKQRELVAVISSVGVSNVAQSVKGRFAISRDNAKNTVYLQMSSLKPEDTAVYYCNALGTGRANWGQGTQVTVSS
On to B5, for which the binding entry in assay [1] and in assay [2] was “binds” in each case.

B6: VHH122 (VHH)
VHH: EVQLQESGGGLVQAGDSLRLSCLVSGRSFNSYTMGWFRQAPGKEREFVAAILWSGPTTYYADSVKGRFTISRDNAKNTVYLQMNSLKPEDTAVYYCAAALGVLVLAPGNVYSYWGQGTQVTVSS
notes: polyhistidine and myc tagged; also called VH122; not shown: C-terminal 6-His and myc tags from pHEN1-H6
As for B6, the binding result in assay [3] and in assay [4] was “binds” each time.
